According to PubChem BioAssay AID1439 (NMMLSC, 2008):
In all, about 220,000 compounds went through this assay and about 770 (0.35%) were called active. The inconclusive results got no clear call from the source; some entries with a clear call stand among them for comparison. No stated cut-off is given here; in the data, active means binding response below about 49% or above about 150%; inconclusive means no clear call, values can overlap the other calls; inactive means in between.

Chains of the proteins cited; added tags and fusions are not shown.
UniProt P09471, whole entry, looked up: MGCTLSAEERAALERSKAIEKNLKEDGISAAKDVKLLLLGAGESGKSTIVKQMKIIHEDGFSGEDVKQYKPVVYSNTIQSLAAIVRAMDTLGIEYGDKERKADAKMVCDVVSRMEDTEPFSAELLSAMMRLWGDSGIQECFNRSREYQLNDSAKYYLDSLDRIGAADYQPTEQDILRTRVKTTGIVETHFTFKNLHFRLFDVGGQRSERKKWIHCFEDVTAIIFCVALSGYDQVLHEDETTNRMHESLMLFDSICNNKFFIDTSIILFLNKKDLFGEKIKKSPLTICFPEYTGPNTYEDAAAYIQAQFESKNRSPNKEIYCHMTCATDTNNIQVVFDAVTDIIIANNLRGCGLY

The compounds below were run against Guanine nucleotide-binding protein G(o) subunit alpha (Homo sapiens) (UniProt P09471) (assay: RGS7-Galphao binding modulators, primary screen, biochemical, multiplexed bead flow cytometry (AID 1439;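 further: fluorescent Galphao held in activated GDP-AlF4 state binding bead-coupled RGS7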)). Conditions: at 10 µM, actives lie on both sides.

Structure (SMILES) | binding response (% of control)
O=C(CNC(=O)c1cccc(Cl)c1)N/N=C/c1cccnc1 | inconclusive: 99.2%
O=S(=O)(c1ccc(F)cc1)N1CCC(N2CCCC2)CC1 | active: 163% [activator]
O=C(NNC1=Nc2ccccc2SC1)c1ccccc1F | inconclusive: -73.3%
O=S(=O)(c1ccc(-c2cc(C(F)(F)F)on2)s1)N1CCCC1 | inconclusive: 277%
CC(=O)NC(N(C#N)c1nc(Cl)nc(N(C)C)n1)C(Cl)(Cl)Cl (centres undefined) | inconclusive: 96.8%
CCCCCCN(C(=O)CCCCCN1C(=O)NC(c2ccc(C3CCCCC3)cc2)C(C(=O)OCc2ccccc2)=C1C)C(C(=O)NCCCC)c1ccc(OCC(=O)OC)c(C(=O)OC)c1 (centres undefined) | inconclusive: 131%
Nc1c(C(=O)N/N=C/c2ccc(Cl)cc2)cnn1-c1ccccc1 | inconclusive: 115%
COCC(=O)O[C@]1(CCN(C)CCCc2nc3ccccc3[nH]2)CCc2cc(F)ccc2[C@@H]1C(C)C | inconclusive: 147%
Cn1c(=O)c(=O)n(C)c2cc(S(=O)(=O)N3CCCC3C(=O)NCc3ccco3)ccc21 (centres undefined) | inconclusive: 52.1%
CCn1c(C)nc2cc(C(=O)N/N=C(\C)c3ccc(N4CCOCC4)cc3)ccc21 | inconclusive: 123%
CCc1ccc(N2C(=O)CC(Cn3nc(C)cc3C)C2=O)cc1 (centres undefined) | inconclusive: 555%
CCCN(CCC)CCCNC(=O)CNC(=O)c1nn(-c2ccc(OC)cc2)c(=O)c2ccccc12 | inconclusive: 101%
CN(C)c1ccc(/C=N/NC(=O)c2cc(-c3ccc4c(c3)OCO4)n[nH]2)cc1 | inconclusive: 188%
CN(CCOc1ccc(-c2ccn(S(=O)(=O)c3cccc4ccccc34)n2)cc1)c1ccccn1 | inactive: 99.4%
Cc1ccccc1C(C(=O)NC1CCCCC1)N(C(=O)CNC(=O)c1ccco1)c1cccnc1 (centres undefined) | inactive: 102%
COc1cc2cc(C)c(SCC(=O)N3CCN(C(=O)c4ccco4)CC3)nc2cc1OC | inconclusive: 110%
COc1ccc(CCNC(=O)CSCC(=O)Nc2ccccc2)cc1OC | inconclusive: 99.8%
CC(C)CNc1ncnc2c1cnn2Cc1ccc(Cl)cc1 | inconclusive: 121%
CCOc1ccc(/C=N/Nc2cc(C)nc(N3CCOCC3)n2)cc1 | inconclusive: 108%
NS(=O)(=O)c1cccc(NC(=O)c2cncc(Br)c2)c1 | inconclusive: 99.2%
CN1C(C(=O)NCc2ccccc2)CC2Cn3c(nc4cc5ccccc5cc43)C21 (centres undefined) | inconclusive: 126%
CCCCCCn1c(-c2cccs2)n[nH]c1=S | inconclusive: 90.7%
COc1cc(OC)cc(C(=O)N[C@H](C(=O)NCc2cccs2)C(C)C)c1 | inconclusive: 101%

Structure (SMILES) | binding response (% of control)
C=CCOc1cccc(NC(=O)c2ccccc2SC)c1 | inactive: 102%
CCC1=C(OC(=O)N(CC)CC)N2C(=O)OC(=NCC(=O)OC)[C@]2(C)[C@H]2C1=CC[C@H]1C(=O)N(CC)C(=O)[C@H]12 | inconclusive: 94.6%
Cc1cc(C)n(-c2ncc3c(n2)N(CCO)CCOC3=O)n1 | inconclusive: 161%
O=C(O)c1ccc(NC(=O)c2cn(-c3ccccc3)nc2-c2ccccc2)cc1 | inconclusive: 117%
O=Cc1ccccc1OCCOc1ccc([N+](=O)[O-])cc1 | inactive: 99.1%
COC(=O)Cn1cc(/C=C/[N+](=O)[O-])c2ccccc21 | inactive: 102%
COc1ccc(Oc2ccc(/C=C/C(=O)c3ccc(O)cc3)cc2[N+](=O)[O-])cc1 | inactive: 101%
CC(C)NC(=O)C12CC3CC(C1)CC(C(=O)NC(C)C)(C3)C2 | inconclusive: 103%
CN(Cc1ccccc1Cl)C(=O)c1cnccc1C(F)(F)F | inconclusive: 32.7%
O=C(COC(=O)C1=COCCO1)Nc1ccc(Oc2ccccc2)cc1 | inactive: 102%
Nn1c(SCC(=O)NC2CCCCC2)nnc1C1CC1 | inactive: 102%
O=C1S/C(=C\c2ccc(N3CCOCC3)o2)C(=O)N1Cc1c(F)cccc1Cl | inactive: 109%
Cc1nn(-c2ccccc2)nc1C(=O)NN | inconclusive: 103%
Cc1cc(C(=O)NNS(=O)(=O)c2cccc(Cl)c2)nn1C(C)(C)C | inconclusive: 30%
O=C(O)/C=C/c1ccccc1[N+](=O)[O-] | inconclusive: 70.9%
Cc1ccc(N2C(=O)C3CC3C2=O)cc1 (centres undefined) | inconclusive: 117%
CCOC(=O)c1nnn(CC(=O)NC(=O)Nc2ccc(F)cc2)c1C(=O)OCC | inconclusive: 89.8%
Cc1cc(Nc2ccc(Cl)cc2)nc(N2CCOCC2)n1 | inconclusive: 106%
CC1(C(=O)N2CC3(CC(c4cccc(NC(=O)CC(c5ccccc5)c5ccccc5)c4)=NO3)C[C@@H]2C(N)=O)CC1 (some centres undefined) | inconclusive: 91.5%
Cc1ccc(N=c2sc(C)c(C)n2C)cc1 | inactive: 102%
CC(=O)Nc1cc(Cl)c(N=Cc2ccc(O)cc2O)cc1Cl | inconclusive: 102%
O=S(=O)(Nc1ccc(N2CCCCC2)cc1)c1ccc(F)cc1 | inconclusive: 91.6%
O=C(c1ccc(Oc2cc(Cl)cc(Cl)c2)o1)N1CCCCC1 | inconclusive: 60.5%

Two neighbouring entries already listed, quoted:
Structure (SMILES) | binding response (% of control)
CCC1=C(OC(=O)N(CC)CC)N2C(=O)OC(=NCC(=O)OC)[C@]2(C)[C@H]2C1=CC[C@H]1C(=O)N(CC)C(=O)[C@H]12 | inconclusive: 94.6%
Cc1cc(C)n(-c2ncc3c(n2)N(CCO)CCOC3=O)n1 | inconclusive: 161%

Additional results follow:

Structure (SMILES) | binding response (% of control)
O=C(NCc1ccc(F)cc1)c1ccc(CNc2c(N3CCOCC3)c(=O)c2=O)cc1 | inconclusive: 80.9%
Cc1cccc(/C=C(\C(=O)C(=O)O)c2ccc3ccccc3n2)c1 | inconclusive: 92.3%
Cc1ccc(C)c(-n2nnnc2SCC(=O)NNC(=O)c2ccco2)c1 | inactive: 104%
Cc1ccc(/C=C2\S/C(=N/S(=O)(=O)c3cccs3)NC2=O)cc1 | inconclusive: 45.4%
O=C(NCCN1CCOCC1)NC1(C(F)(F)F)Oc2ccccc2O1 | inactive: 98.2%
Cc1sc2ncnc(SCC(=O)NNC(=O)c3ccco3)c2c1C | inconclusive: 111%
CN(C)CCn1c(=O)n(-c2ccc(F)cc2)c(=O)c2c3c(sc21)CCCCC3 | inconclusive: 59.9%
CSCC[C@H](NC(=O)OC(C)(C)C)C(=O)N/N=C/c1ccc2nccnc2c1 | inconclusive: 60%
COc1ccc(-n2cc(CN[C@H]3CCCCNC3=O)c(-c3cccc(F)c3)n2)cc1 | inconclusive: 36%
CCOc1cc(C(F)(F)F)cnc1/C(N)=N/O | inconclusive: 16.2%
CN(C)/C=C(\C#N)C(=O)N/N=C(\CC(=O)C(F)(F)F)c1ccco1 | inactive: 100%
Cn1nnnc1SCc1nc2scc(-c3ccc(Cl)cc3)c2c(=O)[nH]1 | inconclusive: 99.9%
Cc1nc2ccccc2c(=O)n1/N=C/c1ccncc1 | inactive: 135%
CCOC(=O)c1cnc2c(C(=O)OCC)cnn2c1N | inconclusive: -354%
O=C(COc1cccnc1[N+](=O)[O-])Nc1ccc(Cl)c(S(=O)(=O)N2CCOCC2)c1 | inconclusive: 22.2%
O=C(COC(=O)c1cc(=O)c2ccccc2o1)NC1CCCCC1 | inconclusive: 120%
Cc1cc(C)c[n+](-c2[nH]c(=O)sc2/C=N/N=C(\N)[S-])c1 | inconclusive: 54.1%
N#Cc1ccc(OCc2nnc3n2CCCCC3)cc1 | inconclusive: 91.2%
O=C(Nc1ccc(-n2cccc2)cc1)C1CC1 | inactive: 99.4%
O=C(O)CCSc1nnc(SCC(=O)NCC(F)(F)F)s1 | inactive: 85.3%
CC(=O)Nc1cc(ON=C(C)C)cc([N+](=O)[O-])c1 | inactive: 96.5%
Nc1nonc1-n1nnc(C(=O)N/N=C/c2cccnc2)c1CSC1=NCCS1 | inconclusive: 107%
COC(=O)[C@H](Cc1ccccc1)NC(=O)Nc1ccc(OC)cc1 | inconclusive: 107%

Compounds listed so far containing a tert-butyl group, in the order listed:
Structure (SMILES) | binding response (% of control)
Cc1cc(C(=O)NNS(=O)(=O)c2cccc(Cl)c2)nn1C(C)(C)C | inconclusive: 30%
CSCC[C@H](NC(=O)OC(C)(C)C)C(=O)N/N=C/c1ccc2nccnc2c1 | inconclusive: 60%

The list goes on.

Structure (SMILES) | binding response (% of control)
Cc1cc(C)n(CCC(=O)N/N=C/c2ccc(Br)c([N+](=O)[O-])c2)n1 | inconclusive: 94.4%
CSCCC(NS(=O)(=O)c1ccc(Cl)c(Cl)c1)C(=O)O (centres undefined) | inconclusive: 119%
CCCCN(C)C(=O)c1nc2ccccn2c1CN1CCSCC1 | inactive: 97.8%
O=C(c1ccccc1)c1cnc[nH]1 | inconclusive: 105%
Cc1cc(C)c(OCC(=O)Nc2nnc(-c3ccco3)o2)c(C)c1 | inconclusive: 96.5%
N#Cc1c(NCCO)ccc([N+](=O)[O-])c1NCCO | inconclusive: 94.2%
O=C(COC(=O)C1=COCCO1)Nc1ccccc1OC(F)F | inconclusive: 122%
COC(=O)c1ccccc1NC(=O)CSc1ncn[nH]1 | inconclusive: 125%
CC(=O)c1c(C)[nH]c(C(=O)OCC(=O)N2c3ccccc3NC(=O)C2(C)C)c1C | inactive: 97.5%
Cc1nc(/C(N)=N/OC(=O)c2ccc(Cl)cc2)c(C(F)(F)F)o1 | inconclusive: 25.6%
COc1ccc(Cl)cc1C(=O)NNC(=O)CN1C(=O)C2CC=CCC2C1=O (centres undefined) | inactive: 97.6%
Cc1cc(C)c(S(=O)(=O)N2CCCCC2C(=O)O)c(C)c1 (centres undefined) | inconclusive: 106%
O=C(CSc1ncccc1C(=O)O)NC1CCCCCCC1 | inconclusive: 426%
Cc1nnc(SCc2nc3sc(C(=O)O)c(C)c3c(=O)[nH]2)s1 | inconclusive: 101%
O=[N+]([O-])c1cc(Cl)ccc1Sc1ccccn1 | inconclusive: 79.2%
CC(C)Cc1nnc(NC(=O)c2cc(-c3ccncc3)nc3ccccc23)s1 | inconclusive: -13.9%
O=C1N/C(=C/c2cccs2)C(=O)N1Cc1ccc(F)cc1 | inconclusive: 58.8%
CCc1ccc(N(CC(=O)Nc2nc3ccc(C)cc3s2)S(=O)(=O)c2c(C)noc2C)cc1 | inactive: 103%
O=C(CSc1nnnn1C1CCCCC1)NCc1cccs1 | inactive: 97.3%
CCCCCCCN1C/C=C\C(c2ccc(OC)cc2)N(Cc2ccc(F)cc2)C(=O)[C@H]1Cc1ccccc1 (some centres undefined) | inconclusive: 75.6%
